Reference: publication PMC3638400 (Philosophical Transactions of the Royal Society B: …, 2013)
Changes are numbered by the printed parent chain. Numbers in names are those of the source. No constants are given. Whether binding was seen depends on the method and setting. Some binding calls cover weakened binding; strength is not graded here. Each block holds one binder with its values, some of them ahead of it.

Amino acid sequences for entries named in this document (tags omitted).
UniProt P14136: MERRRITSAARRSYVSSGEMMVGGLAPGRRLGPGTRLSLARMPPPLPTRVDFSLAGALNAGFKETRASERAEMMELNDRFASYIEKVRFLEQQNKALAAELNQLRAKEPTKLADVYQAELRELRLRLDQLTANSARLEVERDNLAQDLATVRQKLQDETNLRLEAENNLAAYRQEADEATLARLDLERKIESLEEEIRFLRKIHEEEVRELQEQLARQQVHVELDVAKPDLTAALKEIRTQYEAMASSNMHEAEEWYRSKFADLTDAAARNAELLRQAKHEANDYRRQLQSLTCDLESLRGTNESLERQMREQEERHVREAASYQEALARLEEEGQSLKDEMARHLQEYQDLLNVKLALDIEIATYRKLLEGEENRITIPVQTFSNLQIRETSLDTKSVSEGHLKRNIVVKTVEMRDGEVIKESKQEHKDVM
UniProt P08670: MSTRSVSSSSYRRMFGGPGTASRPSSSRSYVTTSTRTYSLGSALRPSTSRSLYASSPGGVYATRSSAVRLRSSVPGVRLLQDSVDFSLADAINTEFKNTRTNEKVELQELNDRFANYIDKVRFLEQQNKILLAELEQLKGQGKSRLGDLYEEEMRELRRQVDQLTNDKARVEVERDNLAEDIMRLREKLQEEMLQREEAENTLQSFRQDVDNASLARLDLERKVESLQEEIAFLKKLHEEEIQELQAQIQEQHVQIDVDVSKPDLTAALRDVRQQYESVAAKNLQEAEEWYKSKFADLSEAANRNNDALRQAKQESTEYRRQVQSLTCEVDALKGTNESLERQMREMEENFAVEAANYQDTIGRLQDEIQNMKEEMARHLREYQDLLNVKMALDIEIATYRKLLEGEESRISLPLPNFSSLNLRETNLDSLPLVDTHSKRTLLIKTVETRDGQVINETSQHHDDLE

Columns and labels:
[1] = molecular target: T1, glial fibrillary acidic protein (GFAP) (human, UniProt P14136 1-432); experiment: co-sedimentation; CRYAB added to preformed GFAP filaments at different pH and temperature; data not shown; both purified
T1 construct: glial fibrillary acidic protein, recombinant human; Assembled into filaments for co-sedimentation and viscometry; immobilised on the chip for SPR; also called WT GFAP; GFAP filaments

[2] = molecular target: T1, glial fibrillary acidic protein (GFAP); experiment: SPR; Biacore 3000; desmin, GFAP and vimentin immobilised on a CM5 chip; CRYAB injected at 20 g ml^-1 (so in the source) for 7 min at 37°C, then washed 7 min; 10 mM HEPES pH 7.4, 0.15 M NaCl, 3.4 mM EDTA, 0.005% P20; double referencing; both purified
vimentin [3] = molecular target: vimentin (UniProt P08670); experiment: as above
[4] = molecular target: T1, glial fibrillary acidic protein (GFAP); experiment: co-sedimentation; high-speed; filaments assembled at 0.2 mg ml^-1 with WT CRYAB at 1 : 1 molar ratio; 20 mM HEPES, 100 mM NaCl, 1 mM MgCl2, 1 mM DTT, pH 6.8 or 7.3; 23, 39 or 44°C; both purified
vimentin [5] = molecular target: vimentin (UniProt P08670); experiment: as above
vimentin [6] = molecular target: vimentin (UniProt P08670); experiment: co-sedimentation; high-speed; filaments assembled at 0.2 mg ml^-1 with WT CRYAB at 1 : 1 molar ratio; 20 mM HEPES, 100 mM NaCl, 1 mM MgCl2, 1 mM DTT, pH 6.3; 23, 39 or 44°C; both purified

binding [1]: binds | binding [2]: binds | binding (vimentin [3]): binds | binding [4]: binds | binding (vimentin [5]): binds | binding (vimentin [6]): binds
B1: wild-type αB-crystallin (CRYAB, HSPB5) (natural protein, human, UniProt P02511 1-175, looked up)
chain: MDIAIHHPWIRRPFFPFHSPSRLFDQFFGEHLLESDLFPTSTSLSPFYLRPPSFLRAPSWFDTGLSEMRLEKDRFSVNLDVKHFSPEELKVKVLGDVIEVHGKHEERQDEHGFISREFHRKYRIPADVDPLTITSSLSSDGVLTVNGPRKQVSGPERTIPITREEKPAVTAAPKK
notes: αB-crystallin (CRYAB, HSPB5), human; Polydisperse oligomer (apparent size about 520 kDa by SEC); also called WT CRYAB; WT αB-crystallin

binding (vimentin [3]): binds
B2: R120G αB-crystallin (R120G CRYAB) (natural protein, human, UniProt P02511 1-175, looked up)
chain: B1 chain with R120G
notes: αB-crystallin (CRYAB, HSPB5), human, with the disease-causing mutation R120G; Mutation found in a human family with desmin-related myopathy and cataract; Oligomer of apparent size 684 kDa by SEC; also called CRYAB R120G
